In the supplement of paper PMC4604168 (melanoma cell lines):
Some of the results follow. Single values are uncertain, as repeats are few or missing.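 Cells were imaged in 1,536-well plates, and nuclei stained with an antibody against cleaved PARP were counted against all DNA-stained nuclei to give the apoptosis fraction. Screening doses were chosen to leave most cells alive, and resting and induced cleaved-PARP levels differ strongly between cell lines.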

Legend:
Assay in all cases: cleaved PARP positive nuclei fraction relative to DMSO control; melanoma cells; higher = more apoptosis
Conditions in all cases: library dose: low library concentration; 72 h
CBRC034 = tested on: CBRC034 (line from a melanoma biopsy)
COLO792 = tested on: COLO792
COLO800 = tested on: COLO800
COLO829 = tested on: COLO829
G361 = tested on: G361
IPC-298 = tested on: IPC-298
IST-MEL1 = tested on: IST-MEL1
LB2518-MEL = tested on: LB2518-MEL
LOXIMVI = tested on: LOXIMVI
MEL-HO = tested on: MEL-HO

Structure (SMILES) | cleaved PARP positive nuclei fraction (CBRC034) | cleaved PARP positive nuclei fraction (COLO792) | cleaved PARP positive nuclei fraction (COLO800) | cleaved PARP positive nuclei fraction (COLO829) | cleaved PARP positive nuclei fraction (G361) | cleaved PARP positive nuclei fraction (IPC-298) | cleaved PARP positive nuclei fraction (IST-MEL1) | cleaved PARP positive nuclei fraction (LB2518-MEL) | cleaved PARP positive nuclei fraction (LOXIMVI) | cleaved PARP positive nuclei fraction (MEL-HO)
C[C@]12O[C@H](C[C@]1(O)CO)n1c3ccccc3c3c4c(c5c6ccccc6n2c5c31)CNC4=O [Lestaurtinib] + Nc1cccc2c1CN(C1CCC(=O)NC1=O)C2=O [lenalidomide] (first compound 0.004 µM, partner dose 1 µM) | 222% | 77% | 103% | 175% | 96.8% | 203% | 60.8% | 51.8% | 59.4% | 63.4%
COc1cc([C@@H]2c3cc4c(cc3[C@@H](O[C@@H]3O[C@@H]5CO[C@@H](C)O[C@H]5[C@H](O)[C@H]3O)[C@H]3COC(=O)[C@H]23)OCO4)cc(OC)c1O [etoposide] + C[C@]12O[C@H](C[C@]1(O)CO)n1c3ccccc3c3c4c(c5c6ccccc6n2c5c31)CNC4=O [Lestaurtinib] (first compound 0.02 µM, partner dose 0.004 µM) | 59.1% | 122% | 120% | 51.2% | 72.2% | 136% | 58.2% | 164% | 100% | 35.8%
C[C@]12O[C@H](C[C@]1(O)CO)n1c3ccccc3c3c4c(c5c6ccccc6n2c5c31)CNC4=O [Lestaurtinib] + O=C(O)[C@@H]1[O][Sb](=[O])([O][Sb]2(=[O])[O][C@H]([C@H](O)CO)[C@H](O)[C@H](C(=O)O)[O]2)[O][C@H]([C@H](O)CO)[C@@H]1O [stibogluconate] (first compound 0.004 µM, partner dose 2 µM) | 30% | 60.7% | 134% | 100% | 69.1% | 44.4% | 51.9% | 104% | 168% | 121%
C[C@]12O[C@H](C[C@]1(O)CO)n1c3ccccc3c3c4c(c5c6ccccc6n2c5c31)CNC4=O [Lestaurtinib] + Clc1ccc(Nc2nnc(Cc3ccncc3)c3ccccc23)cc1 [vatalanib] (first compound 0.004 µM, partner dose 2 µM) | 73.3% | 128% | 411% | 72.7% | 47.8% | 272% | 64.8% | 47.1% | 244% | 96.9%
OCc1c[nH]c2ccccc12 [Indole-3-carbinol] + C[As](C)SC[C@H](NC(=O)CC[C@H](N)C(=O)O)C(=O)NCC(=O)O [Darinaparsin] (first compound 0.8 µM, partner dose 0.4 µM) | 31% | 72.3% | 75.2% | 120% | 220% | 181% | 78.2% | 111% | 43.5% | 45.9%
Cc1cc(Nc2cc(N3CCN(C)CC3)nc(/C=C/c3ccccc3)n2)n[nH]1 + N.N.[Cl][Pt][Cl] [cisplatin] (first compound 0.04 µM, partner dose 1.6 µM) | 78.5% | 132% | 164% | 86.2% | 126% | 31.8% | 132% | 104% | 139% | 65.1%
N.N.[Cl][Pt][Cl] [cisplatin] + C=C(c1ccc(C(=O)O)cc1)c1cc2c(cc1C)C(C)(C)CCC2(C)C [Bexarotene] (first compound 1.6 µM, partner dose 2 µM) | 71.8% | 152% | 65.6% | 98.2% | 157% | 89.9% | 115% | 105% | 42.1% | 44.4%
Cn1cc(C2=C(c3cn(C4CCN(Cc5ccccn5)CC4)c4ccccc34)C(=O)NC2=O)c2ccccc21 [Enzastaurin] + CS(=O)(=O)CCNCc1ccc(-c2ccc3ncnc(Nc4ccc(OCc5cccc(F)c5)c(Cl)c4)c3c2)o1 [lapatinib] (first compound 0.8 µM, partner dose 0.8 µM) | 152% | 132% | 139% | 73% | 39.4% | 61.7% | 181% | 108% | 182% | 163%
C[C@]12O[C@H](C[C@]1(O)CO)n1c3ccccc3c3c4c(c5c6ccccc6n2c5c31)CNC4=O [Lestaurtinib] + CC(=O)O[C@@]12CO[C@@H]1C[C@H](O)[C@@]1(C)C(=O)[C@H](O)C3=C(C)[C@@H](OC(=O)[C@H](O)[C@@H](NC(=O)OC(C)(C)C)c4ccccc4)C[C@@](O)([C@@H](OC(=O)c4ccccc4)[C@H]21)C3(C)C [Docetaxel] (first compound 0.004 µM, partner dose 0.0001 µM) | 96.1% | 522% | 291% | 255% | 186% | 137% | 150% | 64.3% | 101% | 63.3%
Cn1cc(C2=C(c3cn(C4CCN(Cc5ccccn5)CC4)c4ccccc34)C(=O)NC2=O)c2ccccc21 [Enzastaurin] + Cn1sc(=O)n(Cc2ccccc2)c1=O [TDZD-8] (first compound 0.8 µM, partner dose 0.4 µM) | 61% | 60.2% | 98.9% | 24.9% | 61.3% | 74.8% | 60.2% | 45.6% | 53.8% | 131%
C[C@]12O[C@H](C[C@]1(O)CO)n1c3ccccc3c3c4c(c5c6ccccc6n2c5c31)CNC4=O [Lestaurtinib] + COc1ccc(Cl)c(Nc2nc3ccccc3nc2NS(=O)(=O)c2cccc(NC(=O)C(C)(C)N)c2)c1 [XL147] (first compound 0.004 µM, partner dose 0.8 µM) | 141% | 79.9% | 246% | 87.8% | 139% | 45.8% | 94.9% | 66.7% | 149% | 181%
Cn1cc(C2=C(c3cn(C4CCN(Cc5ccccn5)CC4)c4ccccc34)C(=O)NC2=O)c2ccccc21 [Enzastaurin] + C#Cc1cccc(Nc2ncnc3cc(OCCOC)c(OCCOC)cc23)c1 [erlotinib] (first compound 0.8 µM, partner dose 0.8 µM) | 110% | 74.5% | 112% | 50.3% | 66.2% | 112% | 128% | 68.1% | 85.7% | 54.6%
C[As](C)SC[C@H](NC(=O)CC[C@H](N)C(=O)O)C(=O)NCC(=O)O [Darinaparsin] + Nc1cccc2c1CN(C1CCC(=O)NC1=O)C2=O [lenalidomide] (first compound 0.4 µM, partner dose 1 µM) | 138% | 58.7% | 123% | 126% | 58.9% | 170% | 123% | 111% | 74.7% | 80.8%
C[As](C)SC[C@H](NC(=O)CC[C@H](N)C(=O)O)C(=O)NCC(=O)O [Darinaparsin] + C[C@]1(c2nc3c(C(N)=O)cccc3[nH]2)CCCN1 [Veliparib] (first compound 0.4 µM, partner dose 1.4 µM) | 188% | 116% | 127% | 135% | 32.9% | 88% | 109% | 63.8% | 88.5% | 111%
O=C(Nc1cc(C(F)(F)F)cc(C(F)(F)F)c1)c1cc(Cl)ccc1O + C[As](C)SC[C@H](NC(=O)CC[C@H](N)C(=O)O)C(=O)NCC(=O)O [Darinaparsin] (first compound 0.016 µM, partner dose 0.4 µM) | 161% | 56.8% | 99% | 64.6% | 51.7% | 30% | 61.1% | 54.9% | 108% | 79.8%
N.N.[Cl][Pt][Cl] [cisplatin] + C[C@@H](Oc1cc(-c2cnn(C3CCNCC3)c2)cnc1N)c1c(Cl)ccc(F)c1Cl [Crizotinib] (first compound 1.6 µM, partner dose 0.2 µM) | 47.7% | 93.9% | 106% | 49.5% | 158% | 160% | 176% | 104% | 140% | 96%
Cn1cnc2c(F)c(Nc3ccc(Br)cc3Cl)c(C(=O)NOCCO)cc21 [selumetinib] + C[C@]12O[C@H](C[C@]1(O)CO)n1c3ccccc3c3c4c(c5c6ccccc6n2c5c31)CNC4=O [Lestaurtinib] (first compound 0.015 µM, partner dose 0.004 µM) | 87.9% | 60.7% | 74.4% | 108% | 233% | 306% | 132% | 147% | 178% | 103%
Cc1cc(Nc2cc(N3CCN(C)CC3)nc(Sc3ccc(NC(=O)C4CC4)cc3)n2)n[nH]1 [Tozasertib] + Cn1cc(C2=C(c3cn(C4CCN(Cc5ccccn5)CC4)c4ccccc34)C(=O)NC2=O)c2ccccc21 [Enzastaurin] (first compound 0.006 µM, partner dose 0.8 µM) | 68.4% | 56% | 380% | 154% | 151% | 88% | 64.1% | 63.5% | 85.8% | 180%
Cn1cc(C2=C(c3cn(C4CCN(Cc5ccccn5)CC4)c4ccccc34)C(=O)NC2=O)c2ccccc21 [Enzastaurin] + COc1ccc(C2=N[C@@H](c3ccc(Cl)cc3)[C@@H](c3ccc(Cl)cc3)N2C(=O)N2CCNC(=O)C2)c(OC(C)C)c1 [Nutlin-3] (first compound 0.8 µM, partner dose 0.1 µM) | 69.3% | 87.8% | 68.8% | 140% | 113% | 102% | 57.6% | 56.9% | 47.7% | 188%
COc1ccc(C2=N[C@@H](c3ccc(Cl)cc3)[C@@H](c3ccc(Cl)cc3)N2C(=O)N2CCNC(=O)C2)c(OC(C)C)c1 [Nutlin-3] + N.N.[Cl][Pt][Cl] [cisplatin] (first compound 0.1 µM, partner dose 1.6 µM) | 72.3% | 123% | 141% | 124% | 103% | 91.2% | 135% | 114% | 220% | 169%
Nc1ccn([C@@H]2O[C@H](CO)[C@@H](O)C2(F)F)c(=O)n1 [gemcitabine] + C[As](C)SC[C@H](NC(=O)CC[C@H](N)C(=O)O)C(=O)NCC(=O)O [Darinaparsin] (first compound 0.0004 µM, partner dose 0.4 µM) | 169% | 155% | 189% | 131% | 79.4% | 137% | 312% | 123% | 86.8% | 166%

2 records picked at random from the list so far:
Structure (SMILES) | cleaved PARP positive nuclei fraction (CBRC034) | cleaved PARP positive nuclei fraction (COLO792) | cleaved PARP positive nuclei fraction (COLO800) | cleaved PARP positive nuclei fraction (COLO829) | cleaved PARP positive nuclei fraction (G361) | cleaved PARP positive nuclei fraction (IPC-298) | cleaved PARP positive nuclei fraction (IST-MEL1) | cleaved PARP positive nuclei fraction (LB2518-MEL) | cleaved PARP positive nuclei fraction (LOXIMVI) | cleaved PARP positive nuclei fraction (MEL-HO)
Cn1cc(C2=C(c3cn(C4CCN(Cc5ccccn5)CC4)c4ccccc34)C(=O)NC2=O)c2ccccc21 [Enzastaurin] + Cn1sc(=O)n(Cc2ccccc2)c1=O [TDZD-8] (first compound 0.8 µM, partner dose 0.4 µM) | 61% | 60.2% | 98.9% | 24.9% | 61.3% | 74.8% | 60.2% | 45.6% | 53.8% | 131%
C[As](C)SC[C@H](NC(=O)CC[C@H](N)C(=O)O)C(=O)NCC(=O)O [Darinaparsin] + Nc1cccc2c1CN(C1CCC(=O)NC1=O)C2=O [lenalidomide] (first compound 0.4 µM, partner dose 1 µM) | 138% | 58.7% | 123% | 126% | 58.9% | 170% | 123% | 111% | 74.7% | 80.8%
